Results are given in words; binding and its absence hold for the method and conditions named. In cells and extracts the contact can be indirect. Here binding means that the protein was enriched with, or labelled near, the bait; the list need not be complete. Sequences can lack the tags named with a protein.
T1: C6orf203::FLAG (C-terminal FLAG tagged C6orf203) (human) (UniProt Q9P0P8)
T1 sequence: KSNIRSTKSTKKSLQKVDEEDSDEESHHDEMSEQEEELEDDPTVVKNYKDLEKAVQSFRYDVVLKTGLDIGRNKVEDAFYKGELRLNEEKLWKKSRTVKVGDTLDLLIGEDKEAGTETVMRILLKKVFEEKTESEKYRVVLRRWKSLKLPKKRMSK

Chains of the proteins cited; added tags and fusions are not shown.
UniProt A4D1E9: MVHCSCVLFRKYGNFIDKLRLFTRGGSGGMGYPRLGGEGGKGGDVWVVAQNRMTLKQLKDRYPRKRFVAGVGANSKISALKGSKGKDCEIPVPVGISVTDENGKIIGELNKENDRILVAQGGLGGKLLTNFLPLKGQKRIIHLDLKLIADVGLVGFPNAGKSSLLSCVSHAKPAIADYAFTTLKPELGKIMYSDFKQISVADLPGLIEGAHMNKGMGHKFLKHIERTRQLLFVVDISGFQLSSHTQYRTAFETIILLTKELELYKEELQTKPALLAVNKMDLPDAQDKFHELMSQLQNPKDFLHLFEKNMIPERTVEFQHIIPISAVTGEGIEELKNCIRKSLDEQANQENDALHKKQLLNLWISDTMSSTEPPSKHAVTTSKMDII

B1: TRMT10C (protein, UniProt Q7L0Y3 40-403)
chain: MSSKIPAVTYPKNESTPPSEELELDKWKTTMKSSVQEECVSTISSSKDEDPLAATREFIEMWRLLGREVPEHITEEELKTLMECVSNTAKKKYLKYLYTKEKVKKARQIKKEMKAAAREEAKNIKLLETTEEDKQKNFLFLRLWDRNMDIAMGWKGAQAMQFGQPLVFDMAYENYMKRKELQNTVSQLLESEGWNRRNVDPFHIYFCNLKIDGALHRELVKRYQEKWDKLLLTSTEKSHVDLFPKDSIIYLTADSPNVMTTFRHDKVYVIGSFVDKSMQPGTSLAKAKRLNLATECLPLDKYLQWEIGNKNLTLDQMIRILLCLKNNGNWQEALQFVPKRKHTGFLEISQHSQEFINRLKKAKT
B2: C12orf65 (protein, UniProt Q9H3J6 36-166)
chain: IAVTPVQMAGKKDYPALLSLDENELEEQFVKGHGPGGQATNKTSNCVVLKHIPSGIVVKCHQTRSVDQNRKLARKILQEKVDVFYNGENSPVHKEKREAAKKKQERKKRAKETLEKKKLLKELWESSKKVH
B3: RPUSD4 (protein, UniProt Q96CM3 16-377)
chain: NGQGCGSLFTLVSKPFCAAAAASTAINAQRLAEKLRAQKREQDTKKEPVSTNAVQRRVQEIVRFTRQLQRVHPNVLAKALTRGILHQDKNLVVINKPYGLPVHGGPGVQLCITDVLPILAKMLHGHKAEPLHLCHRLDKETTGVMVLAWDKDMAHQVQELFRTRQVVKKYWAITVHVPMPSAGVVDIPIVEKEAQGQQQHHKMTLSPSYRMDDGKMVKVRRSRNAQVAVTQYQVLSSTLSSALVELQPITGIKHQLRVHLSFGLDCPILGDHKYSDWNRLAPQKLSVGTLKKLGLEQSKARYIPLHLHARQLILPALGSGKEELNLVCKLPRFFVHSLHRLRLEMPNEDQNENNEAKCLGAQ
B4: DHX30 (protein, UniProt Q7L2E3 1-1194)
chain: MFSLDSFRKDRAQHRQRQCKLPPPRLPPMCVNPTPGGTISRASRDLLKEFPQPKNLLNSVIGRALGISHAKDKLVYVHTNGPKKKKVTLHIKWPKSVEVEGYGSKKIDAERQAAAAACQLFKGWGLLGPRNELFDAAKYRVLADRFGSPADSWWRPEPTMPPTSWRQLNPESIRPGGPGGLSRSLGREEEEDEEEELEEGTIDVTDFLSMTQQDSHAPLRDSRGSSFEMTDDDSAIRALTQFPLPKNLLAKVIQIATSSSTAKNLMQFHTVGTKTKLSTLTLLWPCPMTFVAKGRRKAEAENKAAALACKKLKSLGLVDRNNEPLTHAMYNLASLRELGETQRRPCTIQVPEPILRKIETFLNHYPVESSWIAPELRLQSDDILPLGKDSGPLSDPITGKPYVPLLEAEEVRLSQSLLELWRRRGPVWQEAPQLPVDPHRDTILNAIEQHPVVVISGDTGCGKTTRIPQLLLERYVTEGRGARCNVIITQPRRISAVSVAQRVSHELGPSLRRNVGFQVRLESKPPSRGGALLFCTVGILLRKLQSNPSLEGVSHVIVDEVHERDVNTDFLLILLKGLQRLNPALRLVLMSATGDNERFSRYFGGCPVIKVPGFMYPVKEHYLEDILAKLGKHQYLHRHRHHESEDECALDLDLVTDLVLHIDARGEPGGILCFLPGWQEIKGVQQRLQEALGMHESKYLILPVHSNIPMMDQKAIFQQPPVGVRKIVLATNIAETSITINDIVHVVDSGLHKEERYDLKTKVSCLETVWVSRANVIQRRGRAGRCQSGFAYHLFPRSRLEKMVPFQVPEILRTPLENLVLQAKIHMPEKTAVEFLSKAVDSPNIKAVDEAVILLQEIGVLDQREYLTTLGQRLAHISTDPRLAKAIVLAAIFRCLHPLLVVVSCLTRDPFSSSLQNRAEVDKVKALLSHDSGSDHLAFVRAVAGWEEVLRWQDRSSRENYLEENLLYAPSLRFIHGLIKQFSENIYEAFLVGKPSDCTLASAQCNEYSEEEELVKGVLMAGLYPNLIQVRQGKVTRQGKFKPNSVTYRTKSGNILLHKSTINREATRLRSRWLTYFMAVKSNGSVFVRDSSQVHPLAVLLLTDGDVHIRDDGRRATISLSDSDLLRLEGDSRTVRLLKELRRALGRMVERSLRSELAALPPSVQEEHGQLLALLAELLRGPCGSFDVRKTADD

Biological target: T1, C6orf203::FLAG (C-terminal FLAG tagged C6orf203) (human)
Experiment: affinity purification with mass spectrometry; FLAG immunoprecipitation from mitochondrial lysate of HEK293T expressing C6orf203::FLAG; eluates analysed by label-free quantitative mass spectrometry (n = 3) against HEK293T without FLAG protein expression

Row | binding | Molecule
1 | binds | GTPBP10 (from UniProt A4D1E9 1-387)
2 | binds | B1
3 | binds | B2
4 | binds | B3
5 | binds | B4

— article PMC6755124
